Measured values reported in patent US20070004791A1, “3,6-disubstituted azabicyclo {3.1.0} hexane derivatives useful as muscarnic receptor antagonists” (priority 2002, published 2007).
Structures were worked out from names or drawings and are uncertain.

Test system: isolated rat bladder

O=C(NC[C@@H]1[C@H]2CN(CCc3ccc4c(c3)OCO4)C[C@@H]12)C(O)(c1ccccc1)C1CCCC1 (relative stereo)
Kb: 61.7 nM
